For 5 molecules, binding results are on record in paper PMC3695765.

The chains behind the UniProt entries cited, without tags or fusion partners.
UniProt O97758: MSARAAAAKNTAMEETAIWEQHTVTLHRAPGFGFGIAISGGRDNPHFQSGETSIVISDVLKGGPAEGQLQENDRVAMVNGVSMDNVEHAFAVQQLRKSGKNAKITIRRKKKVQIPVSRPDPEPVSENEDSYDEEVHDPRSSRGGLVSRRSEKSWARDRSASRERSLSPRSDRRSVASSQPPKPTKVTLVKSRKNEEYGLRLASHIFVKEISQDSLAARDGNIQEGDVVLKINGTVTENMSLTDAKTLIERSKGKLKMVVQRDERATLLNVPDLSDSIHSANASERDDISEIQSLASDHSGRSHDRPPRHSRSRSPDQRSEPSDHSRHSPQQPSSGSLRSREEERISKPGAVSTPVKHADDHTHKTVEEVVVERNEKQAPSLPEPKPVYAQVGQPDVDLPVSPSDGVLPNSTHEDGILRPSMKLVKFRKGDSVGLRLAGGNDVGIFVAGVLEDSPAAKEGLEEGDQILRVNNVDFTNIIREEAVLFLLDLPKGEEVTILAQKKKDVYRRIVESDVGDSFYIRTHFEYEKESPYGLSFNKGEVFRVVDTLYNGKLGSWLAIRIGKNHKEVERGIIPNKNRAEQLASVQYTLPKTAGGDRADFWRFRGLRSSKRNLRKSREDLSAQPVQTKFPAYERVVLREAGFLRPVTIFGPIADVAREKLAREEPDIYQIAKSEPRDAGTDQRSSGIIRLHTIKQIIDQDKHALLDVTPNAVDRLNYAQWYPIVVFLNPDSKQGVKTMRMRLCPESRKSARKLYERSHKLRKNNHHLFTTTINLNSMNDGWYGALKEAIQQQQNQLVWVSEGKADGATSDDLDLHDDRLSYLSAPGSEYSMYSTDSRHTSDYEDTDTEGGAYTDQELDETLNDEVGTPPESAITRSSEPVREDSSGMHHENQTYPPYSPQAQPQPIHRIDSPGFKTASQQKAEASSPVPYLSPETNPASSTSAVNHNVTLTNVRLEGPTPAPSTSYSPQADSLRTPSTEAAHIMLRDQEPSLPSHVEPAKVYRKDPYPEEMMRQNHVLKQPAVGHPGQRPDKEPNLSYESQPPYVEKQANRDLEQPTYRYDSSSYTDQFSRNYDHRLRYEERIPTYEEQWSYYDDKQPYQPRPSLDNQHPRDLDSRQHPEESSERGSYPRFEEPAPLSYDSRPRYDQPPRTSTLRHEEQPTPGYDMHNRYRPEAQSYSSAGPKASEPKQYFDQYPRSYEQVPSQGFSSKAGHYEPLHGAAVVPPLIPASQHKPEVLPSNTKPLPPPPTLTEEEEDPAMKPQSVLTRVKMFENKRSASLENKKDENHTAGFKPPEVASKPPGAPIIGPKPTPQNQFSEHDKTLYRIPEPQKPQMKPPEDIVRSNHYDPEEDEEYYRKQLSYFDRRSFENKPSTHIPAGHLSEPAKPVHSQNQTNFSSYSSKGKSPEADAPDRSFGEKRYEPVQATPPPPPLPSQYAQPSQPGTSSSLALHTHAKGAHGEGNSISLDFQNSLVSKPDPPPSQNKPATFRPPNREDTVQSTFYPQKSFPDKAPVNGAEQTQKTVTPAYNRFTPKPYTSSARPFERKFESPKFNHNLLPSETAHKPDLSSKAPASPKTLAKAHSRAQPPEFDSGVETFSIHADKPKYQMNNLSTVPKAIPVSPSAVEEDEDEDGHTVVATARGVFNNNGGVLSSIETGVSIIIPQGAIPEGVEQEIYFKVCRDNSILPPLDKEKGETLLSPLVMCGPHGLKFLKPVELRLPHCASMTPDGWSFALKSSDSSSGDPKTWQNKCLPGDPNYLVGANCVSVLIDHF

Results are given in words; binding and its absence hold for the method and conditions named. In cells and extracts the contact can be indirect. Some entries that bind do so weakly or less than the wild type. Tags and fused reporters may be left off the sequences shown.

Test [1] has as its target T1, GST-OccC, GST fusion of the C-terminal cytoplasmic tail of human occludin (amino acids 263-523) (human) (UniProt Q16625).
T1 sequence: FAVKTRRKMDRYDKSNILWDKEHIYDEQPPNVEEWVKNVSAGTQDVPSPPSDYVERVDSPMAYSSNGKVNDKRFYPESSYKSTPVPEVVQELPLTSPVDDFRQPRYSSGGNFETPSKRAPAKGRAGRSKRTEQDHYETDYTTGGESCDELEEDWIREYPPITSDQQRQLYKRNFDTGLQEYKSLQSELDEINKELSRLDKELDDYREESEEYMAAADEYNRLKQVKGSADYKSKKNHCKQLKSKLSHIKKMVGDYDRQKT
The test can be described thus: pull-down; GST-OccC constructs used to pull down endogenous ZO-1 from MDCK C11 lysates; data not shown; only the target purified.

The target in test [2] is T2, GST-OccC T400E/T404E/S408E (human) (UniProt Q16625).
T2 sequence: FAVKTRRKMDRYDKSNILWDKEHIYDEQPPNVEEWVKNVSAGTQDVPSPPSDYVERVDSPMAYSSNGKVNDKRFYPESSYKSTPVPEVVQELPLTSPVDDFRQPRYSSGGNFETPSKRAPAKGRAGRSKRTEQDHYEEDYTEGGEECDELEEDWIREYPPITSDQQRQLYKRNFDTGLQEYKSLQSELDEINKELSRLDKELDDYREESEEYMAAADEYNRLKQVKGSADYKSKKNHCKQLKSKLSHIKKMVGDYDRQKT
The description is as above.

Test [3] deals with T3, GST-OccC T400A/T404A/S408A (human) (UniProt Q16625).
T3 sequence: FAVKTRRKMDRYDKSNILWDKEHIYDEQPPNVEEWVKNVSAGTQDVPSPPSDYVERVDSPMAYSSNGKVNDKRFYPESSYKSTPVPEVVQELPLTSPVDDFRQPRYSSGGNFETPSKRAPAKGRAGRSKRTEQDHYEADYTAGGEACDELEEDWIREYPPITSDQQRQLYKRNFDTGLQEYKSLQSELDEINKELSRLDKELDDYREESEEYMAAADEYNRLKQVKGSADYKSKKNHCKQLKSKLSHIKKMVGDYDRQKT
The description is as above.

Test [4] addresses T4, human occludin wild type, N-terminal fusion with YFP or CFP (human), Q16625.
T4 chain: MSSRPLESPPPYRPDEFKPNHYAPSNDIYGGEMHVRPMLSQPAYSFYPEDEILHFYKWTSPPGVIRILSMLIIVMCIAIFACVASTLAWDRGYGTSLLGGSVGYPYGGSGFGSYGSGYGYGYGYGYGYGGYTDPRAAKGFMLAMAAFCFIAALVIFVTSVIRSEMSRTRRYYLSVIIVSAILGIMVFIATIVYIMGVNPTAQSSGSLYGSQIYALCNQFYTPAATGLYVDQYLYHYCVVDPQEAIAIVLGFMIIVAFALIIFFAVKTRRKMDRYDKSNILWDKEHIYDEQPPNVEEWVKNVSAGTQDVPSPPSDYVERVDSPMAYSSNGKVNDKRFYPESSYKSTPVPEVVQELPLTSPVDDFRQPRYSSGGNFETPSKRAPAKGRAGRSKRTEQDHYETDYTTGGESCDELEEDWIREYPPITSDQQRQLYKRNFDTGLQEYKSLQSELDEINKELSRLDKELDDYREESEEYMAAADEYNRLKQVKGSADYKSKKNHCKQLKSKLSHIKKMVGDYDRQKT
In words: FRET or BRET; acceptor photobleaching FRET at cell-cell contacts of living co-transfected HEK-293 cells; CFP and YFP fusions; cis-interaction along the cell membrane. Conditions: remark: other sources report otherwise. (In general: Bioluminescence resonance energy transfer reports proximity on the nanometre scale.)

Test [5] concerns the target T2, GST-OccC T400E/T404E/S408E (human). The test can be described thus: pull-down; GST fusion proteins of the occludin C-terminal cytoplasmic domain incubated with lysates of HEK-293 cells transiently transfected with FLAG-occludin; GSH-agarose; blot with anti-FLAG M2; only the target purified.
The target of test [6] is T3, GST-OccC T400A/T404A/S408A (human). The test is described as above.
The target in test [7] is T1, GST-OccC, GST fusion of the C-terminal cytoplasmic tail of human occludin (amino acids 263-523) (human). The test can be described thus: pull-down; 5 μg purified GST-OccC construct with clarified lysate (1 mg protein) of MDCK C11 cells transfected with pGW-HA-cZO-2; GSH-agarose, 1 h at 4°C; PBS, 0.2% Triton X-100, 1 mM NaVO3, 10 mM NaF; blot with anti-HA; only the target purified.

The target in test [8] is T3, GST-OccC T400A/T404A/S408A (human). The test is described as above.
The target in test [9] is T1, GST-OccC, GST fusion of the C-terminal cytoplasmic tail of human occludin (amino acids 263-523) (human). In words: pull-down; purified GST-OccC, with or without prephosphorylation in vitro by purified CK2, used to pull down FLAG-ZO-2 from lysates of transiently transfected HEK-293 cells; blot with anti-FLAG M2; only the target purified.

For “endogenous ZO-1 of MDCK C11 cells (from UniProt O97758 1-1769)”, the binding entry in test [1], in [2] and in [3] was “binds” each time.

B1: human occludin wild type, N-terminal fusion with YFP or CFP, Q16625 1-522 (protein)
chain: MSSRPLESPPPYRPDEFKPNHYAPSNDIYGGEMHVRPMLSQPAYSFYPEDEILHFYKWTSPPGVIRILSMLIIVMCIAIFACVASTLAWDRGYGTSLLGGSVGYPYGGSGFGSYGSGYGYGYGYGYGYGGYTDPRAAKGFMLAMAAFCFIAALVIFVTSVIRSEMSRTRRYYLSVIIVSAILGIMVFIATIVYIMGVNPTAQSSGSLYGSQIYALCNQFYTPAATGLYVDQYLYHYCVVDPQEAIAIVLGFMIIVAFALIIFFAVKTRRKMDRYDKSNILWDKEHIYDEQPPNVEEWVKNVSAGTQDVPSPPSDYVERVDSPMAYSSNGKVNDKRFYPESSYKSTPVPEVVQELPLTSPVDDFRQPRYSSGGNFETPSKRAPAKGRAGRSKRTEQDHYETDYTTGGESCDELEEDWIREYPPITSDQQRQLYKRNFDTGLQEYKSLQSELDEINKELSRLDKELDDYREESEEYMAAADEYNRLKQVKGSADYKSKKNHCKQLKSKLSHIKKMVGDYDRQKT
As to B1, the binding result in test [4] is listed as “binds”.

B2: full-length FLAG-occludin (protein, UniProt Q16625 1-522)
chain: MSSRPLESPPPYRPDEFKPNHYAPSNDIYGGEMHVRPMLSQPAYSFYPEDEILHFYKWTSPPGVIRILSMLIIVMCIAIFACVASTLAWDRGYGTSLLGGSVGYPYGGSGFGSYGSGYGYGYGYGYGYGGYTDPRAAKGFMLAMAAFCFIAALVIFVTSVIRSEMSRTRRYYLSVIIVSAILGIMVFIATIVYIMGVNPTAQSSGSLYGSQIYALCNQFYTPAATGLYVDQYLYHYCVVDPQEAIAIVLGFMIIVAFALIIFFAVKTRRKMDRYDKSNILWDKEHIYDEQPPNVEEWVKNVSAGTQDVPSPPSDYVERVDSPMAYSSNGKVNDKRFYPESSYKSTPVPEVVQELPLTSPVDDFRQPRYSSGGNFETPSKRAPAKGRAGRSKRTEQDHYETDYTTGGESCDELEEDWIREYPPITSDQQRQLYKRNFDTGLQEYKSLQSELDEINKELSRLDKELDDYREESEEYMAAADEYNRLKQVKGSADYKSKKNHCKQLKSKLSHIKKMVGDYDRQKT
As for B2, the binding entry in [5] and in [6] was “binds” in each case.

B3: HA-tagged ZO-2 (pGW-HA-cZO-2) (protein, UniProt Q95168 1-1174)
chain: MEELIWEQYTVTLQKDSKRGFGIAVSGGRDNPHFENGETSIVISDVLPGGPADGLLQENDRVVMVNGTPMEDVLHSFAVQQLRKSGKIAAIVVKRPRKVQLAPPQGSLPVDEDDRAFEVMDEFDGRSARSGYSERSRRSSHGGRSRSWEDSPERGRPHERAWSQERERSRGRSLERGLDHDDDYRRPRERSRGRSLERGLDHDDDYGRPGERSHGMSTDRGYDRGYDRGYDRGYDRTYSPEAEYGRRTQPDARHAGSRSRSREHLRSRSPSPELRGRPDHAGQPDSDRPIGVLLMKSKANEEYGLRLGSQIFIKQMTRTALATKDGNLHEGDIILKINGTVTENMSLTDARKLIEKSRGKLQLVVLRDSKQTLINIPSLNDSDSEIEDISEIESNRSFSPEERRQQYSDYDYHSSNEKLKERPNSREDMQNRWSRMGATPTPFKSMGDIASVVGTENSKEPRYQEEPPAPQPKAAPRTFLRPSPEDEAIYGPNTKMVRFKKGDSVGLRLAGGNDVGIFVAGIQEGTSAEQEGLQEGDQILKVNTQDFRGLVREDAVLYLLEIPKGEMVTILAQSRADVYRDILACGRGDSFFIRSHFECEKETPQSLAFSRGEVFRVVDTLYDGKLGHWLAVRIGNELEKGLIPNKSRAEQMASVQNAQRDNAGDRADFWRMRGQRSGMKKNLRKSREDLTAAVSVSTKFPAYERVLLREAGFKRPVVLFGPIADIALEKLANELPDLFQTAKTEPKDAGSEKSSGVVRLNTVRQIIEQDKHALLDVTPKAVDLLNYTQWFPIVIFFNPDSRQGVKTMRQRLNPTSNKSSRKLYDQANKLKKTCAHLFTATINLNSANDSWFGSLKDTIQHQQGEAVWVSEGKMEGMDDDPEDRMSYLTAMGADYLSCDSRLISDFEDTDGEGGAYTDNELDEPAEEPLVSSITRSSEPVQHEESIRKPSPEPRAQMRRAASRDQLRDSSPPPAFKPEPPKAKTQNREESFDISRSHDYKSNPSAVAGNEVSGASTRSCPPPIAAKPSFGRSILKPSTPVPSPESEEVGEGSEEQEGAPKSVLGKVKIFEKMDHKARLQRMQELQEAQNARIEIAQKHPDIYAVPIKTHKPDPGLSQHTSSRPPEPQKGPSRLYQDPRGSYGSDAEEEEYRQQLSEHSKRGYYSQPSRYRDTEL
As for B3, the binding entry in test [7] and in test [8] was “binds” throughout.

B4: FLAG-tagged ZO-2 (pFLAG-CMV2-hZO-2) (protein, UniProt Q9UDY2 1-1190)
chain: MPVRGDRGFPPRRELSGWLRAPGMEELIWEQYTVTLQKDSKRGFGIAVSGGRDNPHFENGETSIVISDVLPGGPADGLLQENDRVVMVNGTPMEDVLHSFAVQQLRKSGKVAAIVVKRPRKVQVAALQASPPLDQDDRAFEVMDEFDGRSFRSGYSERSRLNSHGGRSRSWEDSPERGRPHERARSRERDLSRDRSRGRSLERGLDQDHARTRDRSRGRSLERGLDHDFGPSRDRDRDRSRGRSIDQDYERAYHRAYDPDYERAYSPEYRRGARHDARSRGPRSRSREHPHSRSPSPEPRGRPGPIGVLLMKSRANEEYGLRLGSQIFVKEMTRTGLATKDGNLHEGDIILKINGTVTENMSLTDARKLIEKSRGKLQLVVLRDSQQTLINIPSLNDSDSEIEDISEIESNRSFSPEERRHQYSDYDYHSSSEKLKERPSSREDTPSRLSRMGATPTPFKSTGDIAGTVVPETNKEPRYQEDPPAPQPKAAPRTFLRPSPEDEAIYGPNTKMVRFKKGDSVGLRLAGGNDVGIFVAGIQEGTSAEQEGLQEGDQILKVNTQDFRGLVREDAVLYLLEIPKGEMVTILAQSRADVYRDILACGRGDSFFIRSHFECEKETPQSLAFTRGEVFRVVDTLYDGKLGNWLAVRIGNELEKGLIPNKSRAEQMASVQNAQRDNAGDRADFWRMRGQRSGVKKNLRKSREDLTAVVSVSTKFPAYERVLLREAGFKRPVVLFGPIADIAMEKLANELPDWFQTAKTEPKDAGSEKSTGVVRLNTVRQIIEQDKHALLDVTPKAVDLLNYTQWFPIVIFFNPDSRQGVKTMRQRLNPTSNKSSRKLFDQANKLKKTCAHLFTATINLNSANDSWFGSLKDTIQHQQGEAVWVSEGKMEGMDDDPEDRMSYLTAMGADYLSCDSRLISDFEDTDGEGGAYTDNELDEPAEEPLVSSITRSSEPVQHEESIRKPSPEPRAQMRRAASSDQLRDNSPPPAFKPEPPKAKTQNKEESYDFSKSYEYKSNPSAVAGNETPGASTKGYPPPVAAKPTFGRSILKPSTPIPPQEGEEVGESSEEQDNAPKSVLGKVKIFEKMDHKARLQRMQELQEAQNARIEIAQKHPDIYAVPIKTHKPDPGTPQHTSSRPPEPQKAPSRPYQDTRGSYGSDAEEEEYRQQLSEHSKRGYYGQSARYRDTEL
Consider B4, for which the binding entry in [9] was “binds”.
